Data: the supplement of paper PMC6414424
± gives the standard deviation of the averaged measurements. Some of the results follow.

Test system: APPdp1-6 iPSC-derived neurons
Experiment: pThr231Tau/total Tau ratio Z-score vs DMSO vehicle wells; higher = more pThr231Tau relative to total Tau
Conditions: 5 µM; treatment time 5 days

SMILES | pThr231Tau/total Tau ratio Z-score
CCCN(CCC)CCc1cccc2c1CC(=O)N2 [Prestw-1158] | -0.616 ± 0.76
CSc1nc2cc(Cl)c(Oc3cccc(Cl)c3Cl)cc2[nH]1 | -0.344 ± 0.88
Cc1nc2ccccn2c(=O)c1CCN1CCC(C(=O)c2ccc(F)cc2)CC1 [Prestw-531] | 1.99 ± 3.2
O=C(CCNNC(=O)c1ccncc1)NCc1ccccc1 [Prestw-1099] | 1.45 ± 0.52
N/C(=N\C(=O)c1nc(Cl)c(N)nc1N)NCc1ccccc1 [Prestw-657] | -0.0851 ± 0.37
NC(=O)c1cnccn1 [Prestw-514] | 0.942 ± 0.44
CC1(C)S[C@@H]2[C@H](NC(=O)[C@H](N)c3ccccc3)C(=O)N2[C@H]1C(=O)O [Prestw-114] | -1.31 ± 0.19
O=C(O)c1cc(=O)[nH]c(=O)[nH]1 [Orotic acid] | 1.47 ± 0.55
O=c1n(CCCN2CCN(c3cccc(Cl)c3)CC2)nc2ccccn12 [Prestw-292] | 0.332 ± 1.2
CC(=O)NCCCCCC(=O)O [ACEXAMIC ACID    Therap cat: wound healing] | 2.24 ± 1.6
COc1ccc2cc([C@H](C)C(=O)O)ccc2c1 [Prestw-45] | -0.369 ± 0.35
C/C=C(/C(=C/C)c1ccc(O)cc1)c1ccc(O)cc1 [Prestw-798] | 1.15 ± 0.5
Cc1ncc([N+](=O)[O-])n1CC(C)O (configuration not stated) [Prestw-1340] | -0.65 ± 0.29
O=C(O)c1ccccc1OP(=O)(O)O [Prestw-815] | -0.2 ± 0.41
CC1=C(/C=C/C(C)=C/C=C/C(C)=C/CO)C(C)(C)CCC1 [Vitamin A] | 0.969 ± 2.1
C=C1c2cccc(O)c2C(O)=C2C(=O)[C@]3(O)C(O)=C(C(N)=O)C(=O)[C@@H](N(C)C)[C@@H]3[C@@H](O)[C@H]12 [Prestw-964] | 0.672 ± 0.39
C/C(=C\C(=O)OCCCCCCCCC(=O)O)C[C@@H]1OC[C@H](C[C@@H]2O[C@H]2[C@@H](C)[C@H](C)O)[C@@H](O)[C@H]1O | 1.15 ± 1.9
CCc1cccc(CC)c1NC(=O)CN(CC(=O)O)CC(=O)O [Prestw-504] | -0.0716 ± 0.23
O=c1oc2cc(O)ccc2s1 [THIOXOLONE    Therap cat: antiseborrhoic] | 1.74 ± 0.83
Nc1ncnc2c1ncn2C1OC(COP(=O)(O)O)C(O)C1O (configuration not stated) [Prestw-356] | 1.21 ± 1.5
CCOc1ccc2nc(S(N)(=O)=O)sc2c1 | 2.27 ± 2.3
C[C@@H]1C[C@H]2[C@@H]3CCC4=CC(=O)C=C[C@]4(C)[C@@]3(Cl)[C@@H](O)C[C@]2(C)[C@@]1(OC(=O)c1ccco1)C(=O)CCl [Prestw-572] | -1.08 ± 0.068
CN1CCCN(C(c2ccccc2)c2ccc(Cl)cc2)CC1 (configuration not stated) [Prestw-283] | -1.05 ± 0.79
CC(C)OC(=O)C(C)(C)Oc1ccc(C(=O)c2ccc(Cl)cc2)cc1 [Prestw-275] | 0.232 ± 1.1
Cc1c(O)c(=O)n(-c2ccccc2)n1C [Prestw-30] | 0.659 ± 0.79
NC(=O)CC[C@H](N)C(=O)O [L-Glutamine] | 1.97 ± 2.1

Given comma-delimited: entries from further up
SMILES,pThr231Tau/total Tau ratio Z-score
CC1(C)S[C@@H]2[C@H](NC(=O)[C@H](N)c3ccccc3)C(=O)N2[C@H]1C(=O)O [Prestw-114],-1.31 ± 0.19
CN1CCCN(C(c2ccccc2)c2ccc(Cl)cc2)CC1 (configuration not stated) [Prestw-283],-1.05 ± 0.79
Cc1c(O)c(=O)n(-c2ccccc2)n1C [Prestw-30],0.659 ± 0.79

Additional entries follow.

SMILES | pThr231Tau/total Tau ratio Z-score
O=C1c2ccccc2C(=O)C1c1ccc(Br)cc1 [BROMINDIONE, anticoagulant] | 1.26 ± 0.67
CC=CC1=C(C(=O)O)N2C(=O)[C@@H](NC(=O)[C@H](N)c3ccc(O)cc3)[C@H]2SC1 [CEFPROZIL, antibacterial] | 1 ± 1.9
Cc1cc2c(s1)Nc1ccccc1N=C2N1CCN(C)CC1 [Prestw-1455] | -1.41 ± 0.42
CC(=O)N(c1onc(C)c1C)S(=O)(=O)c1ccc(N)cc1 [SULFISOXAZOLE ACETYL, antibacterial] | -0.575 ± 0.25
Cc1cc(O)cc(C)c1Cl | 0.644 ± 1.8
Oc1cccc(O)c1 [RESORCINOL    Therap cat:  keratolytic; antiseborheic] | 1.64 ± 2.5
CN1CCCN=C1/C=C/c1cccc(O)c1 [Prestw-398] | -0.335 ± 0.47
CN1CCCN=C1/C=C/c1cccc(O)c1 [OXANTEL PAMOATE, anthelmintic] | 0.724 ± 1.2
CC(N)CCCC(C)(C)O (configuration not stated) [Prestw-15] | -0.359 ± 0.46
C=CC[C@@H]1C=C(C)C[C@H](C)C[C@H](OC)[C@H]2O[C@@](O)(C(=O)C(=O)N3CCCC[C@H]3C(=O)O[C@H](C(C)=C[C@@H]3CC[C@@H](O)[C@H](OC)C3)[C@H](C)[C@@H](O)CC1=O)[C@H](C)C[C@@H]2OC | 0.0896 ± 1.5
N[C@@H](Cc1cc(I)c(Oc2ccc(O)c(I)c2)c(I)c1)C(=O)O [Prestw-853] | -0.827 ± 0.35
Nc1c2ccccc2nc2ccccc12 [AMINACRINE    Therap cat: local antiseptic] | -1.45 ± 1.9
CN1CCC(=C2c3ccccc3Sc3ccccc32)CC1 [Prestw-294] | -1.69 ± 0.58
C#C[C@]1(O)CC[C@H]2[C@@H]3CCC4=CCCC[C@@H]4[C@H]3CC[C@@]21C [Prestw-95] | 0.471 ± 0.2
C[C@H](CCC(=O)O)[C@H]1CC[C@H]2[C@@H]3[C@@H](O)C[C@@H]4C[C@H](O)CC[C@]4(C)[C@H]3CC[C@]12C [Prestw-958] | 1 ± 0.56
O=C(CCCN1CCN(c2ccccn2)CC1)c1ccc(F)cc1 [Prestw-1117] | 0.142 ± 0.24
CC1CC(OC(=O)c2ccccc2O)CC(C)(C)C1 (configuration not stated) [Prestw-1090] | 0.992 ± 0.45
COC(=O)C1=C(C#N)NC(C)=C(C(=O)OC(C)C)C1c1cccc([N+](=O)[O-])c1 (configuration not stated) [Prestw-1154] | -0.552 ± 0.63
OCCN(CCO)c1nc(N2CCCCC2)c2nc(N(CCO)CCO)nc(N3CCCCC3)c2n1 [Prestw-142] | 1.88 ± 0.74
CN(c1nccc(=O)[nH]1)C1CCN(c2nc3ccccc3n2Cc2ccc(F)cc2)CC1 [Prestw-1506] | 0.291 ± 0.29
O=C(O)c1ccccc1C(=O)Nc1ccc(S(=O)(=O)Nc2nccs2)cc1 [Prestw-869] | -0.187 ± 0.15
C[N+](C)(C)CC(=O)O [Betaine] | 1.35 ± 1.2
C[C@]12CC[C@@H]3c4ccc(OC(=O)c5ccccc5)cc4CC[C@H]3[C@@H]1CC[C@@H]2O [ESTRADIOL BENZOATE    Therap cat: estrogen] | 0.176 ± 0.18
CN1CCN(C(c2ccccc2)c2ccccc2)CC1 [Prestw-510] | -0.386 ± 0.7
CCN(CC)CCNC(C(=O)OCCC(C)C)c1ccccc1 (configuration not stated) [Prestw-1498] | 0.348 ± 0.0042
C[C@@H]1C[C@H]2[C@@H]3CCC4=CC(=O)C=C[C@]4(C)[C@@]3(F)[C@@H](O)C[C@]2(C)[C@@]1(O)C(=O)COP(=O)(O)O | 1.64 ± 1.9
